## Library screen at single concentrations

From ChEMBL document CHEMBL3988442, “University of Dundee, Small-Polar-MMV Screening Library” (2021).

Each number is a percent effect as filed. How 0% and 100% were set is not recorded. Most values in the screen are low, and negative values occur. This is an unselected part of the compounds tested. Two or more numbers in one place are separate tests of the same structure; such repeats can differ widely. A dash means the value is not listed here; it may have been measured.

A: 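Whole-parasite assay of Trypanosoma brucei over 72 hours; the read-out is not stated. Compounds at 30 µM. The record gives no direction; compounds that gave an IC50 in retests scored well above the rest, so higher reads as stronger inhibition. Values scatter widely below zero; nearly all retest evidence comes from the higher of the two concentrations used. Of about 64,000 compounds tested this way, about 940 (1.5%) reached 50% or more in at least one test.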
B: 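Cell assay of Leishmania donovani living inside macrophages; the read-out is not stated. Tested at 30 µM. Higher reads as stronger inhibition (inferred: compounds with an IC50 in retests scored well above the rest). About 69,000 compounds were tested under these conditions; 1.5% (about 1,000) showed 50% or more at least once.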
C: 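Assay of Toxoplasma gondii numbers, read through their beta-galactosidase reporter with a colour substrate. Concentration: 10 µM. The record gives no direction; the compounds picked for IC50 retests had high values, so higher reads as fewer parasites. Size under these conditions: about 67,000 compounds, about 260 of them at 50% or above in at least one test.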

compound	A	B	C
CCn1ncc(CN2CCC(O)(Cn3ccc4ncccc43)CC2)c1C	-4.013%	-3.97%	-21.01%
CC(C)NC(=O)CNC(C)COc1ccccc1 (stereo unspecified)	1.119%	12.06%	-2.912%
Cn1cc(C2(C)CN(Cc3ccc(N4CCCC4)nc3)CCO2)cn1 (stereo unspecified)	-15.01%	15.63%	0%
Cc1noc(C2CCCN(C(=O)c3cc(Cl)c(Cl)n3C)C2)n1 (stereo unspecified)	-8.29%	17.45%	-21.43%
CN1CCC(c2cccc(C(=O)N(C)C)n2)CC1	-	22.36%	-
CC(=O)C1(c2ccccc2)CCN(C(=O)c2ccc3nnnn3c2)CC1	-14.29%	18.29%	12.62%
CC(C)(C)NC(=O)CCOc1cccc(F)c1	-	-6.231%	6.957%
Cc1cnn(CC2CCCN2CC(=O)Nc2nncs2)c1 (stereo unspecified)	-1.836%	-1.841%	0.1357%
CCc1ccc(C(=O)N(c2cccnc2)C(C)C)cc1S(C)(=O)=O	-38.55%	12.8%	1.831%
Cn1cc(S(=O)(=O)N2CCCC2Cn2ccnc2)cn1 (stereo unspecified)	-56.71%	-2.364%	5.42%
O=C(c1ccn(-c2ccccc2)n1)N1CCCC(n2cccn2)C1 (stereo unspecified)	12.5%	11.16%	-2.336%
O=C(NC1CCc2cc(Cl)ccc21)C1CCN(C(=O)C2CC2)CC1 (stereo unspecified)	-	12.99%	11.24%
N#Cc1ncn(CC(=O)N2CCCC2c2cccs2)n1 (stereo unspecified)	-7.671%	-25.98%	-7.958%
O=C(O)CCc1ccc(S(=O)(=O)Nc2cnn(CC3CC3)c2)cc1	-47.66%	13.9%	15.77%
COC1COC2(CCN(c3ccc(C#N)cc3)CC2)C1.O=C(O)C(F)(F)F (stereo unspecified)	-16.89%	2.724%	-1.597%
Cc1ccc(NC(=O)CNc2ccccc2C(N)=O)c(C)c1	-2.679%	-12.77%	9.703%
CC(Nc1ncnc2c1NC(=O)CN2)c1ccc2c(c1)OCO2 (stereo unspecified)	-16.46%	-0.7206%	-26.54%
CN(Cc1c(F)cccc1Cl)C(=O)Nc1cnn(CC(N)=O)c1	-27.84%	13.9%	0.9451%
CSCC(C)(O)CNC(=O)c1cc(Br)ccc1Cl (stereo unspecified)	-52.87%	-7.84%	-0.2189%
[H][C@@]12CCC(=O)N(CCCOC)[C@]1([H])CCN(c1nc3ccccc3s1)C2	-	9.896%	-10.16%
CCn1cc(S(=O)(=O)N2CCC(C)Sc3ccccc32)cn1 (stereo unspecified)	-33.91%	3.394%	-2.952%
Cc1nn(C)cc1CN1CCCC1c1cccc(Nc2nccs2)n1 (stereo unspecified)	-0.8777%	46.83%	10.46%
CCc1c(NCc2ccc(F)cc2)cnn1CC(C)C	-31.57%	14.75%	-3.034%
O=C(O)C(F)(F)F.c1cnc(NCc2nnn3c2CN(Cc2cccs2)CCC3)nc1	-17.42%	-10.14%	5.344%
CC1CN(C(=O)c2ccnc(-n3cncn3)c2)c2ccccc2S1 (stereo unspecified)	-29.19%	4.144%	5.907%
O=C(O)c1cccnc1CN1CCCCC1CCc1cccc(O)c1 (stereo unspecified)	0.9516%	-0.9293%	13.74%
Cc1c(CN2CCC(C(=O)O)(n3cccn3)CC2)oc2ccccc12	-44.54%	1.393%	-0.8038%
c1nc2c(c(C3CC3)n1)CCN(Cc1ccoc1)CC2	11.97%	19%	11.68%
CC(C)N1CCC(N2CCCC(C(=O)NCC3(O)CCCCC3)C2)CC1 (stereo unspecified)	7.523%	24%	0.05764%
CC(NC(=O)Nc1ccccc1CN1CCOCC1)c1nnc(N)s1 (stereo unspecified)	-8.755%	11.03%	0.1739%
COc1ccccc1C(C)NC(=O)NCCC(=O)NC1CCCCC1 (stereo unspecified)	-29.66%	24.86%	0.4052%
O=C1NCCCc2[nH]c(Cc3ccc(F)cc3)nc21	-21.93%	2.672%	-2.254%
CCN(CC)CCNS(=O)(=O)c1cccc(CSC)c1	-	-28.14%	18.64%
CCOC(=O)COC1CCN(C(C)=O)CC(=O)N(C)c2ccccc21 (stereo unspecified)	-8.625%	9.087%	-44.3%
CSCCC(=O)N1CCC(c2nccn2CCN(C)C)CC1	8.933%	31.78%	-4.118%
COC(=O)NCCCC(=O)NC1(c2cccc(Cl)c2)CC1	-47.4%	-27.78%	0.649%
O=C(O)C(F)(F)F.O=C(O)C(F)(F)F.[H][C@@]12CN(C3CCCC3)C[C@H](C(=O)Nc3cccnc3)[C@]1([H])CCO2	-44.54%	8.078% and 3.408%	-4.063%
COC(=O)CC1c2cccnc2C(=O)N1Cc1ccccc1 (stereo unspecified)	-1.841%	-6.748%	5.6%
O=C(c1cccnc1)N1CCCC1C1CCN(Cc2ccccc2)CC1 (stereo unspecified)	-110.1%	7.463%	13.09%
CCc1ncncc1C(=O)N1CCN(Cc2c(C)noc2C)CC1	43.1%	30.17%	5.461%
Cc1ccc(C(=O)N2CCc3ncc(Cn4cccn4)n3CC2)o1	-7.421%	14.2%	18.16%
O=C(NCC(F)F)c1ccc(S(=O)(=O)N2CCCC(O)C2)cc1 (stereo unspecified)	2.761%	15.51%	-2.818%
CCOCc1cnc2n1CCN(C(=O)Cc1ccccn1)C2C.O=C(O)C(F)(F)F (stereo unspecified)	-28.03%	22.24%	13.03%
Cc1nc(O)cc(C2CCN(Cc3cccc(F)c3F)C2)n1.O=C(O)CC(O)(CC(=O)O)C(=O)O (stereo unspecified)	10.09%	1.308%	20.05%
OC1(CNc2cccc(F)c2)CCNCC1	-	9.774%	4.818%
CCn1nc(C)c(CNC(=O)NCC(C)(O)c2ccco2)c1C (stereo unspecified)	-33.05%	-4.518%	2.245%
c1cc(CN2CCC(c3ccncc3)CC2)cc(Cn2cccn2)c1	-6.212%	-14.43%	-7.867%
Clc1ccc(CN2CCC(C3CCN(Cc4cccnc4)CC3)C2)cc1 (stereo unspecified)	-0.9787%	51.57%	-40.18%
CCCc1cncnc1N1CCC(NCc2ccc(O)cc2)CC1	63.63%	-3.143%	5.589%
Cc1ncsc1CCN(C)C(=O)CCc1nc2cccnc2n1C	3.364%	23.1%	-3.101%
CN(Cc1ccccc1)C(=O)[C@@H]1Cc2[nH]cnc2CN1C	-60.72%	-11.03%	-13.77%
O=C(C1CC1)N(Cc1ccc2cc[nH]c2c1)C1CC1	-25.98%	-7.853%	-7.209%
CN(CCO)C(=O)c1coc(CN2CCN(c3ccccc3F)CC2)n1	11.34%	7.902%	-1.211%
CC(C)C(=O)N1CCN(CC(O)c2cc(Cl)ccc2Cl)CC1 (stereo unspecified)	2.577%	4.976%	10.27%
CC(C(=O)NC1CC1)N1CCN(Cc2ccn(C)c(=O)c2)CC1 (stereo unspecified)	2.85%	22.1%	-24.02%
O=C(O)C(F)(F)F.O=C(O)C(F)(F)F.[H][C@@]12CCN(Cc3ccncc3)C[C@]1(C(=O)NCCOC)CCO2	13.68%	35.28%	-7%
CN1CC(=O)N(c2ccsc2)CC12CCN(Cc1cnn(C)c1)C2.O=C(O)C(F)(F)F.O=C(O)C(F)(F)F (stereo unspecified)	-1.836%	23.72%	0.9615%
CCOc1ccccc1CC(=O)N1C[C@@H](C(=O)O)[C@H](C2CC2)C1	-5.508%	-16.66%	18.83%
COc1ccc2c(CN3CCN(Cc4cccc(F)c4)CC3)n[nH]c2c1	1.656%	20.79%	0.6215%
Cc1ccc(-c2cc(N)c(=O)n(CC(=O)NCC3CCCCC3)n2)s1	-0.9818%	19.66%	4.164%
O=C(COc1ccc2c(c1)OCO2)NCc1ccco1	-24.24%	-39.75%	-39.93%
COc1ccc(C)cc1-c1csc(Cn2ccc(=O)[nH]c2=O)n1	-51.8%	21.4%	3.346%
O=C(c1cccc(-c2ncc[nH]2)c1)N1CC[C@H](CO)[C@@H](O)C1	9.708%	20.18%	1.888%

The last 8 entries again:

O=C(O)C(F)(F)F.O=C(O)C(F)(F)F.[H][C@@]12CCN(Cc3ccncc3)C[C@]1(C(=O)NCCOC)CCO2 read A: 13.68%; B: 35.28%; C: -7%.
CN1CC(=O)N(c2ccsc2)CC12CCN(Cc1cnn(C)c1)C2.O=C(O)C(F)(F)F.O=C(O)C(F)(F)F (stereo unspecified) read A: -1.836%; B: 23.72%; C: 0.9615%.
CCOc1ccccc1CC(=O)N1C[C@@H](C(=O)O)[C@H](C2CC2)C1 read A: -5.508%; B: -16.66%; C: 18.83%.
COc1ccc2c(CN3CCN(Cc4cccc(F)c4)CC3)n[nH]c2c1 read A: 1.656%; B: 20.79%; C: 0.6215%.
Cc1ccc(-c2cc(N)c(=O)n(CC(=O)NCC3CCCCC3)n2)s1 read A: -0.9818%; B: 19.66%; C: 4.164%.
O=C(COc1ccc2c(c1)OCO2)NCc1ccco1 read A: -24.24%; B: -39.75%; C: -39.93%.
COc1ccc(C)cc1-c1csc(Cn2ccc(=O)[nH]c2=O)n1 read A: -51.8%; B: 21.4%; C: 3.346%.
O=C(c1cccc(-c2ncc[nH]2)c1)N1CC[C@H](CO)[C@@H](O)C1 read A: 9.708%; B: 20.18%; C: 1.888%.